The results in this text go back to PMC10667839.

By UniProt entry, the sequences of proteins in these tests, tags left out.
UniProt O60264, whole entry: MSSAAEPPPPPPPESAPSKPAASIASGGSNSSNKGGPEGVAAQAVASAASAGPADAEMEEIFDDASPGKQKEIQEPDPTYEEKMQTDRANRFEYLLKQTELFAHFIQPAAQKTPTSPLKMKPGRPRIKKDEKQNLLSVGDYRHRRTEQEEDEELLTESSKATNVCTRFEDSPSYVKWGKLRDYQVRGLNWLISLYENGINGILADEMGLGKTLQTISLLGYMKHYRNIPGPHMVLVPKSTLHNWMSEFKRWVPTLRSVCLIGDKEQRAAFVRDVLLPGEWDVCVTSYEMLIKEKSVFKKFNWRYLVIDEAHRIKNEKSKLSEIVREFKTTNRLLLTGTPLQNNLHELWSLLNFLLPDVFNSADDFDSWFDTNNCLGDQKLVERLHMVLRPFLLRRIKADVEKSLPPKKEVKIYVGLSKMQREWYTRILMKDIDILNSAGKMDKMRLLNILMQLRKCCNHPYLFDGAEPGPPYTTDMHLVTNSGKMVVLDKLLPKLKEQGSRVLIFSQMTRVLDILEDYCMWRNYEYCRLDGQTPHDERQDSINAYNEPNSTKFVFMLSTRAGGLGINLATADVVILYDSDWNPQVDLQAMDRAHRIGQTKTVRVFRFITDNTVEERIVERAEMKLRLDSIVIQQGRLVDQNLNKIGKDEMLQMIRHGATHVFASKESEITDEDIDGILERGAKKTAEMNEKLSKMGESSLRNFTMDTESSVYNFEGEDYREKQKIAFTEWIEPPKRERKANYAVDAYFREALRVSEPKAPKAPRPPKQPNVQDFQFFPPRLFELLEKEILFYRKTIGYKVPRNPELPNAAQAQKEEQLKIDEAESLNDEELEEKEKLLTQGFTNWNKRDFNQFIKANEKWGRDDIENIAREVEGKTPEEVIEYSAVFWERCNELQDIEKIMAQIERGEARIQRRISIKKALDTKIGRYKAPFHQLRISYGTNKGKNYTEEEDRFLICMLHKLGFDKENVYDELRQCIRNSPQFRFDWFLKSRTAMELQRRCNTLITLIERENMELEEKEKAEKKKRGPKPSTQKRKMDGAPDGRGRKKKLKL

In this data set the target is SMARCA5 (UniProt O60264). Description: EMSA. The settings on record: 20 fmol probe, 1 ug protein; biotin (position not given); LightShift Chemiluminescent EMSA kit (Pierce), manufacturer's protocol; room temperature 20 min; native 8% PAGE; salt and pH not stated; recombinant protein; label: biotin.

Construct, isoform or probe ends are uncertain for at least one entry. At least one verdict was read from the data and is not stated in words by the source.

In the case of “CAGGCAAGAGGGAAAAGCAGGTGCAAAGGCCCTGAGGTGGGTGTATCTGAGGTGCAAGAG (double strand) [biotin DNA-probe (SMARCA5 target DNA)]”, the binding result is listed as “binds”.
